Our source for the binding values is patent US20030082173A1 (ST JUDE CHILDREN S RESEARCH HOSPITAL, published 2003).

The chains behind the UniProt entries cited, without tags or fusion partners.
UniProt P49069: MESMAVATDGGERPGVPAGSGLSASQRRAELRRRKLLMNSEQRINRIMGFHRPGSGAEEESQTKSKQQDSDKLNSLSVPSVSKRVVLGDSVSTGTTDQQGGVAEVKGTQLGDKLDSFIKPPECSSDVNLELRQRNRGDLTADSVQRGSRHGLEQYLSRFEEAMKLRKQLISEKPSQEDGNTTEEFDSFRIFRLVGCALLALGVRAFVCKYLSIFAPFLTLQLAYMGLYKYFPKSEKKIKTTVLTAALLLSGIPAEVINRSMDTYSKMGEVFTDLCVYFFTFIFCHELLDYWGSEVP

The target of this experiment is T1, TACI-1 with an N-terminal FLAG tag (human) (UniProt O14836).
T1 sequence: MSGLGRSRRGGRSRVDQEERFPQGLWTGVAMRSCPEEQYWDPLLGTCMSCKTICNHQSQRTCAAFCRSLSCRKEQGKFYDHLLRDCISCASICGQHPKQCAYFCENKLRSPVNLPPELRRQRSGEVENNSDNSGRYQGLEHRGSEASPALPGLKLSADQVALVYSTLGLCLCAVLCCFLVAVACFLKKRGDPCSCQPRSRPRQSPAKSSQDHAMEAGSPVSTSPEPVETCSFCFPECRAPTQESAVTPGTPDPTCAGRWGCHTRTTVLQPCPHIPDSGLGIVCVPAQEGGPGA
In words: co-immunoprecipitation from 293T lysates with anti-FLAG agarose, Western blot with anti-CAML. For orientation: A western blot detects proteins with antibodies after separation by electrophoresis.

Results are given in words; binding and its absence hold for the method and conditions named. Binding seen in cells or lysates may run through a third protein. Some results given as binding are weak or reduced against the parent protein; the word gives no strength. Where a sequence is shown, tags or fusion partners need not be part of it.

Regarding “calcium-signal modulating cyclophilin ligand (CAML), human, full length (from UniProt P49069 1-296)”, the binding result is recorded as “binds”.
